Some of these results come from one statement about several compounds together.
Assay: Wettability (wetting time), method of International IDF Standard 87:1979
Type: physicochemical
Conditions: amino acid coated with de-oiled phospholipid composition by the method of the invention
Text: The wettability (wetting time) can be determined using the method of International IDF Standard 87:1979.

Question: With `N[C@@H](Cc1c[nH]c2ccccc12)C(=O)O` [Trp, tryptophan] as the compound, how does the wetting time read?
Answer: below 50 s
